# Laboratory results published in PMC10085704.
# Chains of the proteins cited; added tags and fusions are not shown.
# UniProt Q5SVQ0: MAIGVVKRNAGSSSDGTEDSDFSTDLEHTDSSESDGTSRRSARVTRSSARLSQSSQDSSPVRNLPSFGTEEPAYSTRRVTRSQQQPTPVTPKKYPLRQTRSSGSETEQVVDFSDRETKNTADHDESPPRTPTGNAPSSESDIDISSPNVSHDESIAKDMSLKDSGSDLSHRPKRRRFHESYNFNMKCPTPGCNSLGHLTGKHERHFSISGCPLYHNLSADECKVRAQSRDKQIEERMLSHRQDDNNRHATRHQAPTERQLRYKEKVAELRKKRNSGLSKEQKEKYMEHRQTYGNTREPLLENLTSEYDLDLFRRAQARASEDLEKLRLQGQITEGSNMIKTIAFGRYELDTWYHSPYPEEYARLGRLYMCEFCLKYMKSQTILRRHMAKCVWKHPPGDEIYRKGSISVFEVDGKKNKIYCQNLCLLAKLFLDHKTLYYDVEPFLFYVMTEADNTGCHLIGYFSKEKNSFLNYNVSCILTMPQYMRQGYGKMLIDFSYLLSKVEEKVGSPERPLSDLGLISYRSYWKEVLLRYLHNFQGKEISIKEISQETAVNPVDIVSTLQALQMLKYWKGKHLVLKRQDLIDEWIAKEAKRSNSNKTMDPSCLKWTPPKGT
# UniProt Q9D8Y8: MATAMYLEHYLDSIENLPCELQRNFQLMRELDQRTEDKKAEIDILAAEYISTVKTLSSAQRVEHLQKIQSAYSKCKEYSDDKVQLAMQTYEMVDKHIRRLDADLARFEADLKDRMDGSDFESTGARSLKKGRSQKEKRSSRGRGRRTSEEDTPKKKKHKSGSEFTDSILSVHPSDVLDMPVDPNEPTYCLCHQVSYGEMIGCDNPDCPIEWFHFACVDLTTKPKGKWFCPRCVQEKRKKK
# UniProt Q8C0D7: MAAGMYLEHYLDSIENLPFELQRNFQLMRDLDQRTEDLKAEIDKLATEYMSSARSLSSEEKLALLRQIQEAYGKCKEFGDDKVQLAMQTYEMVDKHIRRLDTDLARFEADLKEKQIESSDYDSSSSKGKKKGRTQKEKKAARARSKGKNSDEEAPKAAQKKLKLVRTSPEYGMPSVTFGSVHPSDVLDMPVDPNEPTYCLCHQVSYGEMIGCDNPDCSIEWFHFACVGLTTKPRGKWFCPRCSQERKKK
# UniProt Q6ZQF7: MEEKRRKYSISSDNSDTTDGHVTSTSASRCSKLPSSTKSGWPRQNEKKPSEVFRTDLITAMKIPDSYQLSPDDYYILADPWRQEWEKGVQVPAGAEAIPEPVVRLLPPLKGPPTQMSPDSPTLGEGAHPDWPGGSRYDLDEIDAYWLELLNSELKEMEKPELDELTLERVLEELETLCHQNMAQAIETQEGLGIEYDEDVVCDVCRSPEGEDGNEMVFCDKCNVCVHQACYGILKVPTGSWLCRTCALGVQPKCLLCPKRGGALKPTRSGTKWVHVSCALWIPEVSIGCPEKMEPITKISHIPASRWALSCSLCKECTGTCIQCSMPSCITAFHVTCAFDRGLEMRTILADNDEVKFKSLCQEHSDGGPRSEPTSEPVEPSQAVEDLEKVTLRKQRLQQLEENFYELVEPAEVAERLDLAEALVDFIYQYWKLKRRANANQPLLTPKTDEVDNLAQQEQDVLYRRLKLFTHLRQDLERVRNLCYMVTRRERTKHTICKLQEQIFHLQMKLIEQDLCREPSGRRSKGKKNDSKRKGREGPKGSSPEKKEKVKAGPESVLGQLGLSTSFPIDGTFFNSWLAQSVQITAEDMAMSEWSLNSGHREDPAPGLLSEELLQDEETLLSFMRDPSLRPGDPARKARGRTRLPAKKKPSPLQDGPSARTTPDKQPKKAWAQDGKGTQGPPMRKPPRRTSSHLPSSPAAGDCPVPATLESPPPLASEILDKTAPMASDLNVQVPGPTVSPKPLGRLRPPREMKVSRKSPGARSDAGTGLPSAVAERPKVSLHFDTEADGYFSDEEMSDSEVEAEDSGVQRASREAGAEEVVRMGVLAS
# UniProt Q6ZPI0: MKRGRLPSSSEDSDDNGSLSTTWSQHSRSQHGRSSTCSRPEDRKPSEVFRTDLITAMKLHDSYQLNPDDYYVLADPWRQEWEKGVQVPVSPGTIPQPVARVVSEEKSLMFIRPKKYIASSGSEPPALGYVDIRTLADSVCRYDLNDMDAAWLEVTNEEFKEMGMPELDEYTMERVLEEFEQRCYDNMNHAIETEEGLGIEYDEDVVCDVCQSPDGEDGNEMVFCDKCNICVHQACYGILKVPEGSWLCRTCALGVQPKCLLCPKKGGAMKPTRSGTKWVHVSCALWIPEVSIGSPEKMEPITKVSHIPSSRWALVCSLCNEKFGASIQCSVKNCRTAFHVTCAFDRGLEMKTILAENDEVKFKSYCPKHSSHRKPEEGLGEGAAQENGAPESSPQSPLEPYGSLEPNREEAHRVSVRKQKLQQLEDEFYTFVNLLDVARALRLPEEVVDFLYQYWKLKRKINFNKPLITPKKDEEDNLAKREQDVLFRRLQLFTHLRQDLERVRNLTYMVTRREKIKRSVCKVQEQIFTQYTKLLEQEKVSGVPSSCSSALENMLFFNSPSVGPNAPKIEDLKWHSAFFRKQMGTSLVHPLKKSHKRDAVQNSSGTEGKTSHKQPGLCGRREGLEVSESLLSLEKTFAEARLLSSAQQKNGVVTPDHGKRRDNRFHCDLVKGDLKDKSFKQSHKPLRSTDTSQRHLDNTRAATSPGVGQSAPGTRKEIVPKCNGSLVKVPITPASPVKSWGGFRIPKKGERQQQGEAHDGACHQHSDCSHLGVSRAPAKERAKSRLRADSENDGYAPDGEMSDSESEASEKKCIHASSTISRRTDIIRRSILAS
# UniProt B2RRD7: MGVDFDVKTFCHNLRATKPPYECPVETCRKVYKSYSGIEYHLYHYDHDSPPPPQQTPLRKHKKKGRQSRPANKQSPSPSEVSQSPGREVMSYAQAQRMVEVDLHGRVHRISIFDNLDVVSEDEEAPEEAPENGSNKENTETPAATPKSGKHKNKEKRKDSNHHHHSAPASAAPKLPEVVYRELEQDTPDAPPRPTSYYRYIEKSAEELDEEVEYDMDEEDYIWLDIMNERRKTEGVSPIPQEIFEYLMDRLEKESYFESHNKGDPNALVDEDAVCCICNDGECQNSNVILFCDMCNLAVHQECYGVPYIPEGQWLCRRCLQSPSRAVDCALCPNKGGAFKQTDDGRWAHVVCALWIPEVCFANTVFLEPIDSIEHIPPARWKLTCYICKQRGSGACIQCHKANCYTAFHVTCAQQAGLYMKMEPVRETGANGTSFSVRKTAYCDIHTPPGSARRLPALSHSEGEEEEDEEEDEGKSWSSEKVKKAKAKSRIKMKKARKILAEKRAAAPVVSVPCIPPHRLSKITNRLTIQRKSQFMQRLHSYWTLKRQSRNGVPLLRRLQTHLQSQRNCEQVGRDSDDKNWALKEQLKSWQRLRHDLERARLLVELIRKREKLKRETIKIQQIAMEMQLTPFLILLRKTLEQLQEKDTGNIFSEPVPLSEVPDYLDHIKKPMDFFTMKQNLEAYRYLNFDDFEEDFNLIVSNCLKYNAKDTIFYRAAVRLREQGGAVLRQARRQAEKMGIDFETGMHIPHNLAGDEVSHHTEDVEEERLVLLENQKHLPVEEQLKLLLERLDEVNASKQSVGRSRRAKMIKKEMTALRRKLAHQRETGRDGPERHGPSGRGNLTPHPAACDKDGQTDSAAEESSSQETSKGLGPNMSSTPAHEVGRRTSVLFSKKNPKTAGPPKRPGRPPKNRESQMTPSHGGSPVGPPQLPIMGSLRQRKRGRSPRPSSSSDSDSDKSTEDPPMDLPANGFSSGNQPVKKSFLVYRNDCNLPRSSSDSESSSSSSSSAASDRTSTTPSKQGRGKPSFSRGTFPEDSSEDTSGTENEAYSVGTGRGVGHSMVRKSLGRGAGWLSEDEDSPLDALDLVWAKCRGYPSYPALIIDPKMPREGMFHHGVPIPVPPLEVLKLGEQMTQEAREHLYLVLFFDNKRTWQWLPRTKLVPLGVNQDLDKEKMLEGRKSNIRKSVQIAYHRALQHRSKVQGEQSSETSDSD
# These are yes or no findings as the source states them, for the method shown. Binding seen in cells or lysates may run through a third protein. These calls come from enrichment with a bait or labelling near it, and not all partners need be listed.
# Target: KAT7 (mouse (endogenous in mouse PSCs)) (UniProt Q5SVQ0)
# Experiment: affinity purification with mass spectrometry; ChIP-MS with a KAT7 antibody (Abcam ab70183) against normal rabbit IgG; cells crosslinked in 1% paraformaldehyde, lysed in IP buffer, sonicated; protein A sepharose; low salt and high salt (500 mM NaCl) washes; on-bead digestion; triplicates in naive, formative and primed mouse PSCs
row,Molecule,binding
1,ING5 (from UniProt Q9D8Y8 1-240),binds
2,ING4 (from UniProt Q8C0D7 1-249),binds
3,"JADE3 (protein, UniProt Q6IE82 1-823) MKRHRPVSSSESSDECPSTSFTSSSMYRKKSKNPKEQKKSAEVFRKDLISAMKIPDSHHVNPDSYYLFTDTWKEEWEKGVQVPANPDSVPTPSLRIISEKVKEMLFVRPRKYIRCSSPESAEPGYINTLEQAASTCRYDLDDMDIFWLQELNEDLGEMGYGPIDETLMEKTIEVLERHCHENMNHAIETVEGLGIEYDEDVICDVCRSPDSEEGNDMVFCDKCNVCVHQACYGILKIPEGSWLCRSCVLGIYPQCVLCPKKGGAMKTTRTGTKWAHVSCALWIPEVSIACPERMEPVTKISHIPPSRWALVCNLCKLKTGACIQCSVKSCITAFHVTCAFEHGLEMKTILDEGDEVKFKSFCLKHSQNKPKLGDAEYHHHRVAEQSQAKSEKTSLRAQKLRELEEEFYTLVQVEDVAKEMELSAFTVDFIYNYWKLKRKSNFNKPLIPPKEEEENGLVQPKEESIHTRMRMFMHLRQDLERVRNLCYMISRREKLKLSHTKVQEQIFGLQVQLINEEITEGLSLTNALENSLFYPPPRITLKLKMPKSTSEDCKDSSTETEHQLSSPGSSSPGHSKRSPQMPEEPLDMNVKIYPRYPLESKSNCLQTSRSHSRCETKSSSPTPRAPSAEFYHGQSLGKPLALQAALHGQVSIGNGKNQPNSRVSSSNGLEGNWSGNITQKVNSSEVCYDQESMLSSHLPSPGNIRKSSMEHFSRSFKEATNTWVKPTEDLQYCVKPTKNVSSKEQLWGRQLLRRPTGRASYQETDGYCPDLEPSDSEAEGEGSKETPRVKRESSDRENPSHDSARECHGKTKTHPHSHSSMQR",binds

# The next lines start with the values.
row,binding,Molecule
1,binds,JADE2 (from UniProt Q6ZQF7 1-829)
2,binds,JADE1 (from UniProt Q6ZPI0 1-834)
3,binds weakly,BRPF1 (from UniProt B2RRD7 1-1212)
